# Laboratory results from paper PMC8270486.
# These are yes or no findings as the source states them, for the method shown. Binding seen in cells or lysates may run through a third protein. Some entries that bind do so weakly or less than the wild type.
# T1: Alk5 (TGFβR1) (not stated (endogenous in ECs; mouse ECs and bovine aortic ECs are used in the paper)) (UniProt Q64729)
# T1 sequence: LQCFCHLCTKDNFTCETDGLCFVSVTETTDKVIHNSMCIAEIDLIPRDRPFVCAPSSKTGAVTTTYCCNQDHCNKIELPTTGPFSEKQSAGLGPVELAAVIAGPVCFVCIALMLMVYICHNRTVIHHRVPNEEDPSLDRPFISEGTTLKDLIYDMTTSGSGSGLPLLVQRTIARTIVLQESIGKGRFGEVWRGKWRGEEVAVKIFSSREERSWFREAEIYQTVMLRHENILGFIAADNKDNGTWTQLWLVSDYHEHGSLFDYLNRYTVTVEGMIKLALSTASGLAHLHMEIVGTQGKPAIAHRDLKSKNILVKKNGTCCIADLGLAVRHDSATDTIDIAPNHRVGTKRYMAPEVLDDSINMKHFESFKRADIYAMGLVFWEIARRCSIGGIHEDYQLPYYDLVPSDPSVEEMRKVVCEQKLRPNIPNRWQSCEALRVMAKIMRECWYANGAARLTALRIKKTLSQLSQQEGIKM
# Target: T1, Alk5 (TGFβR1) (not stated (endogenous in ECs; mouse ECs and bovine aortic ECs are used in the paper))
# Experiment: co-IP; endogenous Alk5 immunoprecipitated from precleared lysates of ECs exposed to acute shear stress, with antibody coupled to protein A/G plus sepharose beads, 2 hours at 4°C, three washes with lysis buffer; Western blot for Shc; nonspecific IgG as control
binder,measurement,value
"Src homology and collagen (Shc) (protein, UniProt P98083 1-579) MDLLPPKPKYNPLRNESLSSLEEGASGSTPPEELPSPSASSLGPILPPLPGDDSPTTLCSFFPRMSNLKLANPAGGRLGPKGEPGKAAEDGEGSAGAALRDSGLLPLLQDMNKLSGGGGRRTRVEGGQLGGEEWTRHGSFVNKPTRGWLHPNDKVMGPGVSYLVRYMGCVEVLQSMRALDFNTRTQVTREAISLVCEAVPGAKGATRRRKPCSRPLSSILGRSNLKFAGMPITLTVSTSSLNLMAADCKQIIANHHMQSISFASGGDPDTAEYVAYVAKDPVNQRACHILECPEGLAQDVISTIGQAFELRFKQYLRNPPKLVTPHDRMAGFDGSAWDEEEEEPPDHQYYNDFPGKEPPLGGVVDMRLREGAARPTLPSAQMSSHLGATLPIGQHAAGDHEVRKQMLPPPPCPGRELFDDPSYVNIQNLDKARQAGGGAGPPNPSLNGSAPRDLFDMKPFEDALRVPPPPQSMSMAEQLQGEPWFHGKLSRREAEALLQLNGDFLVRESTTTPGQYVLTGLQSGQPKHLLLVDPEGVVRTKDHRFESVSHLISYHMDNHLPIISAGSELCLQQPVDRKV",binding,binds
